We go through 1 substance from paper PMC10607609, “The Functionality of IbpA from Acholeplasma laidlawii Is Governed by Dynamic Rearrangement of Its Globular–Fibrillar Quaternary Structure” (International Journal of Molecular Sciences, 2023).

No constants are given. Whether binding was seen depends on the method and setting. Binding calls can cover weak binding; strength is not graded here. Tags and fused reporters may be left off the sequences shown.

This experiment concerns the target T1, AlIbpAΔN12_(His6), AlIbpA lacking 12 N-terminal amino acid residues (Acholeplasma laidlawii) (UniProt A9NFB2).
T1 sequence: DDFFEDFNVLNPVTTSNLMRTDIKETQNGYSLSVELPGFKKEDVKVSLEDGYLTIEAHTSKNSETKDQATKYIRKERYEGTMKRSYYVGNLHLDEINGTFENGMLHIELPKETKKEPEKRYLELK
Description: cross-linking; sHSP (1.0 mg/mL) mixed with human insulin (1.0 mg/mL) for 10 min at 25 °C or 56 °C, then 0.05% glutaraldehyde for 20 min, stopped with 100 mM Tris pH 7.4; the product was used as analyte in BLI; both purified.

Consider human insulin (ligand), for which the binding result is on record as “binds”.
